No constants are given. Whether binding was seen depends on the method and setting. In cells and extracts the contact can be indirect.
Target: T1, HIV-1 Tat-interacting protein 110 (Tip110) (UniProt Q15020)
T1 sequence: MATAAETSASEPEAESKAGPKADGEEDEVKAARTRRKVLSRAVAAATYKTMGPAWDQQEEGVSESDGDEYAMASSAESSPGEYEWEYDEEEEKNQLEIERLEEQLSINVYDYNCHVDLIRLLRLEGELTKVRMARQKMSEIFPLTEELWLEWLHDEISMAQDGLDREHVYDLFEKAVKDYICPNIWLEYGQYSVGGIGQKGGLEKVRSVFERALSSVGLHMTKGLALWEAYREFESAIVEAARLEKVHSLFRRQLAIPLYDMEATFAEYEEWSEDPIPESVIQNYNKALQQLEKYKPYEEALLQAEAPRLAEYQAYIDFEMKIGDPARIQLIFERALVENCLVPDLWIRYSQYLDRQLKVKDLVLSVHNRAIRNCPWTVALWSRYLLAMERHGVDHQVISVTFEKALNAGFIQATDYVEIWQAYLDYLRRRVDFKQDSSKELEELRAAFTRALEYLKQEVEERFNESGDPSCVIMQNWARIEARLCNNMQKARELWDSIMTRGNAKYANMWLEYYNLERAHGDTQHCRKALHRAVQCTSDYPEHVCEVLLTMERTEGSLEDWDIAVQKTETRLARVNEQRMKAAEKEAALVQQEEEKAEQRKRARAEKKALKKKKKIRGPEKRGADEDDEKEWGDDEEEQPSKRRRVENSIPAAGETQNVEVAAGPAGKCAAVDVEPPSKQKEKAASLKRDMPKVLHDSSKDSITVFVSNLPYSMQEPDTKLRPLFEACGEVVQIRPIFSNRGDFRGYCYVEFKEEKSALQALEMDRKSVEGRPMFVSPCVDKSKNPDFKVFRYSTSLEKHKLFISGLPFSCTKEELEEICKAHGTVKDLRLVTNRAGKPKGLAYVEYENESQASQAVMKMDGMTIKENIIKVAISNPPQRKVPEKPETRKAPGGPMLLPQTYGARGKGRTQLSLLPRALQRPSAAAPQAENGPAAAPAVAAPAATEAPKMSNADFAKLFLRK
Experiment: co-IP; 293T transfected with Tip110 or vector control, treated with TNF-α for 20 hr; 1 mg lysate with 1 μg primary antibody at 4°C overnight, protein A agarose beads; lysis buffer 50 mM Tris.HCl pH 8.0, 280 mM NaCl, 0.5% NP-40

Sequences of proteins named here, by UniProt entry; tags and fusion partners are left off.
UniProt Q04206: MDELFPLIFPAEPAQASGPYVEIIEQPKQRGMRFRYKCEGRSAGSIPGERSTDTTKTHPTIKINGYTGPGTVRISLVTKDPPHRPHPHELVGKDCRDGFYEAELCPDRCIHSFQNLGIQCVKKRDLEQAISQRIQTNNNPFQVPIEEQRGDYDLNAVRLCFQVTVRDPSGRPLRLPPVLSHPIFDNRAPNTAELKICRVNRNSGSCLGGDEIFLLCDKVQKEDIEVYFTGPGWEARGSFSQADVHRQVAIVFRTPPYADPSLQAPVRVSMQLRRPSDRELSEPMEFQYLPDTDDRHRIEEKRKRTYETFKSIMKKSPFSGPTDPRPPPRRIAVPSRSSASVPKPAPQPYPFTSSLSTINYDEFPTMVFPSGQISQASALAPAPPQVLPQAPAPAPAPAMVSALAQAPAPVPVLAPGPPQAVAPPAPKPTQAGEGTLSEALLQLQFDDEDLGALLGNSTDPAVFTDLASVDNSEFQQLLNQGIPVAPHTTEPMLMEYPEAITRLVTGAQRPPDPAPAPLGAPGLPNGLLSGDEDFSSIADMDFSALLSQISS

In the case of NF-κB p65 (from UniProt Q04206 1-551), the binding is reported as “no binding”.
